Source: US5869448A, “Cyclic CS-1 peptidomimetics, compositions and methods of using same” (Cytel Corporation, priority 1995, dated 1999)
Not every detail of the peptide structures is certain; ends, links or a residue may be inferred. Residues, ends and D or L forms follow the SMILES beside them. *: point of attachment. Morpholide = C1CN(*)CCO1; PhAc = O=C(Cc1ccccc1)*

By UniProt entry, the sequences of proteins in these tests, tags left out. Residues count along the entry.
UniProt P13612, 34-1032: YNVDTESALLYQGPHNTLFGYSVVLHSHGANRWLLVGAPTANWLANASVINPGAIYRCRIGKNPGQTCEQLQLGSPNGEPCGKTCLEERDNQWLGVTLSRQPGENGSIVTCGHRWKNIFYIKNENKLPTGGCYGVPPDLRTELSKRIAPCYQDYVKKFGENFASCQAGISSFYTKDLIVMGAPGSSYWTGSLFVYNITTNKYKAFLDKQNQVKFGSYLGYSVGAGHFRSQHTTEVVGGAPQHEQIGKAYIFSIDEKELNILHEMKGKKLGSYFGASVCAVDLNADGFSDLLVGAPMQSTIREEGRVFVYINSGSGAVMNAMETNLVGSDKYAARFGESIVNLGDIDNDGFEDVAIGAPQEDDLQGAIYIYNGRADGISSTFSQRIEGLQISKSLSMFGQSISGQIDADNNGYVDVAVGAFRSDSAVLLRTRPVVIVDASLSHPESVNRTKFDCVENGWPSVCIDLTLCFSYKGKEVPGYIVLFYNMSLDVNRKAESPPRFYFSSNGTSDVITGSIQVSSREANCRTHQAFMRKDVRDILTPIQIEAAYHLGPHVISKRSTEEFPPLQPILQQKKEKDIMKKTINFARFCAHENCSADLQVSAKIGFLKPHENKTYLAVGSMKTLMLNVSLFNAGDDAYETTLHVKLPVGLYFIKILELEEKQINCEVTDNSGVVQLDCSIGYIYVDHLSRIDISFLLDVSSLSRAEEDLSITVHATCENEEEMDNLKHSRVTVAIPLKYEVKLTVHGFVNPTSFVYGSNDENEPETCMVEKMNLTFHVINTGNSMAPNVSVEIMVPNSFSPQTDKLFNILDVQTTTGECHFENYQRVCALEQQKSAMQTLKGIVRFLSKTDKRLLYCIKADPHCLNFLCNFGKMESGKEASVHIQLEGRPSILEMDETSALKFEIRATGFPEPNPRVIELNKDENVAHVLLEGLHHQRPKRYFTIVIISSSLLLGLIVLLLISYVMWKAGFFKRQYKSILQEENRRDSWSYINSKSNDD

Molecular target: T1, VLA-4/CS-1 (Homo sapiens, UniProt P05556+P13612)
T1 construct: inflammatory cells that contain the VLA-4 receptor [Jurkat cells; host or cells: Jurkat (human T lymphoblastic line)
Experiment: In vitro inhibition of binding of 51Cr-labeled Jurkat cells to solid phase-bound CS-1 peptide
Assay type: cell-based
Procedure: Binding inhibition is measured here as a concentration of peptide that inhibits one-half the binding between a standard number of Jurkat cells and a standard amount of CS-1 peptide bound to the surface of a microtiter plate well. Those concentrations are conveniently expressed as IC50 values, smaller numbers indicating a lower concentration required to inhibit 50 percent binding and therefore greater potency. Further specifics of this assay are provided hereinafter.
Jurkat cells (ATCC TIB 152), a human T lymphoblastic line, labeled with ^51 chromium were used to assay in vitro binding inhibition provided by various peptides discussed herein.
The plates were prepared as follows: The 25-mer CS-1 peptide (SEQ ID NO:5) dissolved at 0.5-1 μg/ml in a buffer of 0.1M NaHCO3 at pH 9.5 that also contained 10 μg/ml of bovine serum albumin (BSA) or a conjugate of the CS-1 peptide linked to ovalbumin (CS-1-OVA) dissolved at 1-2.5 μg/ml in the same buffer was used as the substrate. Each well of the microtiter plates was coated with 50 μl of substrate or buffer alone for controls. The wells were permitted to dry out completely and were then rinsed twice with PBS at pH 7.4. Non-specific binding sites of each well were then blocked using 200 μl per well of RPMI/1 percent BSA for two hours at room temperature. Both solid phase-affixed substrates provided similar results. […]

CC(C)C[C@H](NC(=O)Cc1ccccc1)C(=O)N[C@@H](CC(=O)O)C(=O)N[C@@H](Cc1ccccc1)C(=O)N1CCOCC1 [XLDFZ, .phi.Ac-LeuAspPhe-morpholinamide, reference compound] (PhAc-Leu-Asp-Phe-Morpholide)
CS-1 binding inhibition potencies relative to each other (XLDFp = 1): about 2.7 | inhibition potency relative to the Standard 10-mer of SEQ ID NO:6 (times more potent than standard 10-mer): about 844
